According to the supplement of paper PMC11006884:
What follows is the remainder of the data, with few or none of the targets with a hit. Single values of this set are uncertain. Only a part is listed here, and it is no random draw.

The chains behind the UniProt entries cited, without tags or fusion partners. Where a name states a change or a piece, a line headed by the entry shows the natural chain unless it says otherwise.
UniProt P48047: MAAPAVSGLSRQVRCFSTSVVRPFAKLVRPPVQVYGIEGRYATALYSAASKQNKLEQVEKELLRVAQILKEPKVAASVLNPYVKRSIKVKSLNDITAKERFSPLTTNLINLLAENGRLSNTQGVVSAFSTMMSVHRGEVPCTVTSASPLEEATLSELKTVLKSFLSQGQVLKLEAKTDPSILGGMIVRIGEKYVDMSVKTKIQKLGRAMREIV
UniProt P49840: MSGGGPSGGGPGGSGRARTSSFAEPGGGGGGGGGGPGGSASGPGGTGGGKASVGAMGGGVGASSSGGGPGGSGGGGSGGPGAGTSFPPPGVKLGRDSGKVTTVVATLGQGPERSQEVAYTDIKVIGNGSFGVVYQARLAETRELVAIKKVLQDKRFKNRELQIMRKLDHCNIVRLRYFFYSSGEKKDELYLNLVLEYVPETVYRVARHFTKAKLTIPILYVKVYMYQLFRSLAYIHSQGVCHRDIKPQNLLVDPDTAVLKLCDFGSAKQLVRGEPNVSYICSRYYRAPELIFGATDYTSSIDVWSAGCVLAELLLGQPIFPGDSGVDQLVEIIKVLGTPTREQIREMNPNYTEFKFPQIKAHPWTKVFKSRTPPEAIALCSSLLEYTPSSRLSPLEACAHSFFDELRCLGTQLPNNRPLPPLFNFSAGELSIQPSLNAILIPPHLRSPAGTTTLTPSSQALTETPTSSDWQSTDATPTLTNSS
UniProt P50991: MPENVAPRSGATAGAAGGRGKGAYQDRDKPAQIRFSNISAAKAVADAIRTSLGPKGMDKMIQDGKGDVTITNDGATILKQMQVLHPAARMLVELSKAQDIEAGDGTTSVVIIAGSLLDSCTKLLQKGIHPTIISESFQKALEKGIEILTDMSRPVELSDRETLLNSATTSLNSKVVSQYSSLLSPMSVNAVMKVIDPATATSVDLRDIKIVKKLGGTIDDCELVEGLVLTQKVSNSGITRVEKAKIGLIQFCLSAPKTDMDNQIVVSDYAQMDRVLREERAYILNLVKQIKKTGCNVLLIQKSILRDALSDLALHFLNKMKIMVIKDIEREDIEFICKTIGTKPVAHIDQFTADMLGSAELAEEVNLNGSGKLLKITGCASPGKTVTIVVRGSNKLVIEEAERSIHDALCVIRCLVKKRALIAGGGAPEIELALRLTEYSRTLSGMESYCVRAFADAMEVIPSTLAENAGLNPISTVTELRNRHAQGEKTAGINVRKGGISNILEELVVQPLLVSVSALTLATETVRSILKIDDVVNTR
UniProt P49915: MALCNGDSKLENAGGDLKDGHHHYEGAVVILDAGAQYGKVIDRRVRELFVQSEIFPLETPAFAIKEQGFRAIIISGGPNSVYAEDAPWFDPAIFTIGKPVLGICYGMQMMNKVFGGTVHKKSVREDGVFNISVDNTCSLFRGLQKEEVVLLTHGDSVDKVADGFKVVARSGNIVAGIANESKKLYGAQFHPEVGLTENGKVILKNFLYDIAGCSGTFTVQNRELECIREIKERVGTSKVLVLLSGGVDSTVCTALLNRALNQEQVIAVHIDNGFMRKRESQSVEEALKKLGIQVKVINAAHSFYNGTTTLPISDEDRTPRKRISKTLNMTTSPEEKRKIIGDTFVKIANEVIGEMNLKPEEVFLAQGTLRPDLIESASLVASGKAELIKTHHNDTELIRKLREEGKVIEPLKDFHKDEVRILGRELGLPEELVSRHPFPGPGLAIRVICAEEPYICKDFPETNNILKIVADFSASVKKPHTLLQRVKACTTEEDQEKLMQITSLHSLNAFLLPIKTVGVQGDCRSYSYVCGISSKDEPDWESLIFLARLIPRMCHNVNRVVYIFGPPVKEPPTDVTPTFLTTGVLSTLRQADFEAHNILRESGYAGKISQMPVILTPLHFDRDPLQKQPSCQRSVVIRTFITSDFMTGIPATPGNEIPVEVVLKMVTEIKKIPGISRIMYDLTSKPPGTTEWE
UniProt P49589: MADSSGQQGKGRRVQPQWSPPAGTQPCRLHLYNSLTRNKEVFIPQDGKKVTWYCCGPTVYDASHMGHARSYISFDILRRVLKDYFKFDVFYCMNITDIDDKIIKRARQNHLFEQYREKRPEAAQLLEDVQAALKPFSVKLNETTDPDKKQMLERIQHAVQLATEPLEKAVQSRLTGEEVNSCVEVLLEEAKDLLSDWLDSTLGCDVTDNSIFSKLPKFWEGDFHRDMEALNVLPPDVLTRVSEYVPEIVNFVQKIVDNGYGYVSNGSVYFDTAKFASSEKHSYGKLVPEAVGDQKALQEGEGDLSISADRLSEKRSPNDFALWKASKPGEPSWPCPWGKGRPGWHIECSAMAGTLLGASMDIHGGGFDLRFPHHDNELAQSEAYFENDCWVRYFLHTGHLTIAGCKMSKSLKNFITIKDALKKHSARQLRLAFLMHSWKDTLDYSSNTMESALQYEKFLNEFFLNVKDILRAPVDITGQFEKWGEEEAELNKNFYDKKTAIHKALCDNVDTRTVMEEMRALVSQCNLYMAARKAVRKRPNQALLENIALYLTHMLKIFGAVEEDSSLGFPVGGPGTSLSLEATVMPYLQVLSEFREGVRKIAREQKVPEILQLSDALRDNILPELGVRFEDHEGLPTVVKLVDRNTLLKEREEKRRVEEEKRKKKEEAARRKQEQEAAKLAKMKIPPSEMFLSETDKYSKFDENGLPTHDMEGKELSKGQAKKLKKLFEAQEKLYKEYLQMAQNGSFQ
UniProt P50851: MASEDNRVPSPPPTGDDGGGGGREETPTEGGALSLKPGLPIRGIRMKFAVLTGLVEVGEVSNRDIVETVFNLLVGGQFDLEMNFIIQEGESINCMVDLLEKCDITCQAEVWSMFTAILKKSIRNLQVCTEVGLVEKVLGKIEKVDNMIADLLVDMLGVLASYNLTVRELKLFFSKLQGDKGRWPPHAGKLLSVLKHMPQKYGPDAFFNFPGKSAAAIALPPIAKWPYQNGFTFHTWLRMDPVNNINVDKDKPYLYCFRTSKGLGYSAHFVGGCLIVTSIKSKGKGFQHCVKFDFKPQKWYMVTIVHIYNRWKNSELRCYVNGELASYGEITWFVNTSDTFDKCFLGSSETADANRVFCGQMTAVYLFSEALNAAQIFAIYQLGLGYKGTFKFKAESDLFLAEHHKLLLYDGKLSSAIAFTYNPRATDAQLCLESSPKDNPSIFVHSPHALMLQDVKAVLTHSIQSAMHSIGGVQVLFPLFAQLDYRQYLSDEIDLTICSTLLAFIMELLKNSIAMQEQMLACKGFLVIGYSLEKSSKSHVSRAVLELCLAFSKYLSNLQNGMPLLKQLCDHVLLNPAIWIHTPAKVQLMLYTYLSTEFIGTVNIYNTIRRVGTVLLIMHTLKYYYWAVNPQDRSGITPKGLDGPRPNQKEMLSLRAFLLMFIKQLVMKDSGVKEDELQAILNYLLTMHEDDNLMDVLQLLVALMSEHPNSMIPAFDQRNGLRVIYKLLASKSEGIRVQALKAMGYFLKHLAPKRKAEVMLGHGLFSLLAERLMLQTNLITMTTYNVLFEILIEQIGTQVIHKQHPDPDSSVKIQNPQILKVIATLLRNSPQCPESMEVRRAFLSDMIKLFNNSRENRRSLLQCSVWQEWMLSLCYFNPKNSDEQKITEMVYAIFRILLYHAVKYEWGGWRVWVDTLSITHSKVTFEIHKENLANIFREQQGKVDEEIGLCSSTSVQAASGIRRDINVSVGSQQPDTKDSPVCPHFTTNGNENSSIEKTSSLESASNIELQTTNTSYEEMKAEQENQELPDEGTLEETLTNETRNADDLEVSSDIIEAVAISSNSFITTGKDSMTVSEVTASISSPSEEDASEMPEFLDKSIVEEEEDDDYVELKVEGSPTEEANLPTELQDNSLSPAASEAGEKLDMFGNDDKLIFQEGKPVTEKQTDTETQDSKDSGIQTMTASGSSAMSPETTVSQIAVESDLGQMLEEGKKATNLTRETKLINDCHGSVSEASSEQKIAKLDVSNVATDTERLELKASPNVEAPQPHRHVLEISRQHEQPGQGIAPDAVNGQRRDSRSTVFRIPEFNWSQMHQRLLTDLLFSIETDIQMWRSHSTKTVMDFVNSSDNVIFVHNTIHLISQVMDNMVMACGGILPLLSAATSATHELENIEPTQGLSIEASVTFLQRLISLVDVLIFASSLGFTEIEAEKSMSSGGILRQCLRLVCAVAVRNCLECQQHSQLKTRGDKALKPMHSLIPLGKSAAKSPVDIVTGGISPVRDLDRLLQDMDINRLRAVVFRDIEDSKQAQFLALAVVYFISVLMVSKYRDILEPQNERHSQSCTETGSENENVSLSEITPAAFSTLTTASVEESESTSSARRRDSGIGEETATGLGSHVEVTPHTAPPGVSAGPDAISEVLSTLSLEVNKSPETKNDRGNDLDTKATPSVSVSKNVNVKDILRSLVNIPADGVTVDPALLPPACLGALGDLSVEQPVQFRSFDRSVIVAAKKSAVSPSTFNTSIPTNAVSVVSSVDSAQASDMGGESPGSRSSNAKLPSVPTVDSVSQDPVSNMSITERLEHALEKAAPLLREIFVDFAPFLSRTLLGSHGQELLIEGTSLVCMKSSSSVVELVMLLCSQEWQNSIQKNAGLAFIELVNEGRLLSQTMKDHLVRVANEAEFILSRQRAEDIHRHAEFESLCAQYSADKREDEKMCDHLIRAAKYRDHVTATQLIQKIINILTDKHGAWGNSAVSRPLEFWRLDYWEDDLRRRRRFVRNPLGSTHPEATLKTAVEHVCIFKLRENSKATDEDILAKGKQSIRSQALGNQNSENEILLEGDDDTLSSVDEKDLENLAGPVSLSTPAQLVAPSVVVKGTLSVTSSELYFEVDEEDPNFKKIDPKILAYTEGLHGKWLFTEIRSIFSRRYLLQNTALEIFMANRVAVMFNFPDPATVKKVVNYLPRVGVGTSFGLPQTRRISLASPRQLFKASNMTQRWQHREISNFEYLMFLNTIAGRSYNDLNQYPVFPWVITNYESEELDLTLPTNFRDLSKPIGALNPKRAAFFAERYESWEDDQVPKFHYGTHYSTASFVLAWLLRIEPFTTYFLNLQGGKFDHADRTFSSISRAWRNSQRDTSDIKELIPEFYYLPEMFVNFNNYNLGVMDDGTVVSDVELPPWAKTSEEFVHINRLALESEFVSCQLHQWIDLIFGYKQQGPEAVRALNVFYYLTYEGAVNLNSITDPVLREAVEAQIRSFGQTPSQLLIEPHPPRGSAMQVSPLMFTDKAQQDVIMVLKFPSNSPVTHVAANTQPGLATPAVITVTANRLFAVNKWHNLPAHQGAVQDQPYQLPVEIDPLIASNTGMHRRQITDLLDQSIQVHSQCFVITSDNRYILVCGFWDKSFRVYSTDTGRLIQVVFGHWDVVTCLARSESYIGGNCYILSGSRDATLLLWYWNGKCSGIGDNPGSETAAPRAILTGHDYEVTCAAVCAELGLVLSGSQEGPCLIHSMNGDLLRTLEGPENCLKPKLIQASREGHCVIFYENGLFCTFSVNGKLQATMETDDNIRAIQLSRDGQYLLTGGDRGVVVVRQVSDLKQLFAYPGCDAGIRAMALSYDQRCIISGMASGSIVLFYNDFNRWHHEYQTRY
UniProt P50990: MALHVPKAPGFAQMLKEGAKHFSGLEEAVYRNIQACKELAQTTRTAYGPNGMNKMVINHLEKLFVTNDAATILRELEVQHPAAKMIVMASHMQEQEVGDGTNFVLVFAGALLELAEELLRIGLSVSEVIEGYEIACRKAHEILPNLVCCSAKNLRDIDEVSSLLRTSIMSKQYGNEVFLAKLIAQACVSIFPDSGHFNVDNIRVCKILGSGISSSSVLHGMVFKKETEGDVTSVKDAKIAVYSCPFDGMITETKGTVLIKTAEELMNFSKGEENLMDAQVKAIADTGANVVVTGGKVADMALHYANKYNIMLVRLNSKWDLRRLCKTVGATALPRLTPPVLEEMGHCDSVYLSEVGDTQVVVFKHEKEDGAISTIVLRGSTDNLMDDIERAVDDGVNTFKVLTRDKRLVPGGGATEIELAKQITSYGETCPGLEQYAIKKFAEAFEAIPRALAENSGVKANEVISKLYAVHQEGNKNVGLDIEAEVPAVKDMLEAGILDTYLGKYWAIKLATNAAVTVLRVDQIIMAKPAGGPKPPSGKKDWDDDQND
UniProt P45880: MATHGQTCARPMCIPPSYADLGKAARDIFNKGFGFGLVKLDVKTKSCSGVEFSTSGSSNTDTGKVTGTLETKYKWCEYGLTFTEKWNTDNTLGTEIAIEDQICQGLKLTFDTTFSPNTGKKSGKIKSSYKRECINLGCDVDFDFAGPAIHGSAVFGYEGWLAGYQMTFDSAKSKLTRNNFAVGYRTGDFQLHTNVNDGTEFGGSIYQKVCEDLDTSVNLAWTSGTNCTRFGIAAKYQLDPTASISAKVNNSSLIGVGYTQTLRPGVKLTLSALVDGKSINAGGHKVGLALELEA

These targets were tested with COC(=O)/C=C/c1ccccc1 [methyl cinnamate] (assay: log2 ratio of iodoacetamide-alkyne labeling of the cysteine site, DMSO over compound (competition); higher = stronger covalent engagement of the cysteine by the compound, active = 1 or more). Details: 500 µM; treatment time 1 h; system: HEK293T cell lysate.
Method in brief: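 HEK293T lysate (2 mg/mL) was incubated with electrophile (500 µM) or vehicle for 1 h at ambient temperature and then with iodoacetamide alkyne for 1 h. Labelled proteins were clicked to sCIP-TMT reagents, pooled, digested, enriched on streptavidin and measured by Orbitrap Eclipse LC-MS/MS with FAIMS, with FragPipe quantification. The per-cysteine log2 competition ratio is mean control-channel reporter intensity over mean compound-channel reporter intensity. Across three replicates with duplicate channels, cysteines quantified in only one replicate were excluded.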

log2 ratio of iodoacetamide-alkyne labeling, inactive:
RBM25 C110 (UniProt P49756) 0.158, ACADSB C175 (UniProt P45954) 0.287, RPL34 C83 (UniProt P49207) 0.0307, UniProt P48047_C141 0.0847, UniProt P49840_C398 0.0746, RECQL C49 (UniProt P46063) 0.146, CCT4 C221 (UniProt P50991) -0.143, GMPS C554 (UniProt P49915) -0.0187, CARS C27 (UniProt P49589) 0.0806, ALDH7A1 C522 (UniProt P49419) 0.104, MKI67 C643 (UniProt P46013) -0.066, LRBA C1228 (UniProt P50851) 0.24, RANBP2 C581 (UniProt P49792) 0.247, AARS C947 (UniProt P49588) 0.154, LRBA C1563 (UniProt P50851) 0.56, UTRN C3023 (UniProt P46939) 0.143, FASN C1141 (UniProt P49327) 0.202, CCT8 C36 (UniProt P50990) 0.176, VDAC2 C210 (UniProt P45880) 0.0403, GDI2 C202 (UniProt P50395) 0.124, ERF C189 (UniProt P50548) 0.336, UTRN C862 (UniProt P46939) 0.304
